# According to paper PMC12677699, “Utilizing Proteolytic‐Resistant Nano‐Short Peptide Based on Naphthyl Tail‐Anchored to Combat Bacterial Infections” (Advanced Science, 2025):
# Non-standard residues stand in square brackets, D forms with d. Residues, ends and D or L forms follow the SMILES beside them. ξ: configuration not given here. ξAhp(2) = CCCCCC(N)C(=O)O
# Assay: Geometric mean of selectivity index (GMSI)
# Conditions: SI = HC20 or IC50 / GMMIC; 256 μM used where no 20% hemolysis or 50% cell death at > […]
row,Structure (SMILES),GMSI (geometric mean of the selectivity index)
1,CCCCCC(N)C(=O)NC(CCCCC)C(=O)NC(CCCCC)C(=O)NC(CCCCC)C(=O)N[C@H](CCCNC(=N)N)C(=O)N[C@@H](CCCNC(=N)N)C(=O)N[C@@H](CCCNC(=N)N)C(=O)N1CCC[C@H]1C(=O)O (some centres unmarked) [Peptide B4] (H-[ξAhp(2)][ξAhp(2)][ξAhp(2)][ξAhp(2)][dR]RRP-OH; N-terminus assumed),9.19
2,N=C(N)NCCC[C@H](NC(=O)[C@@H](CCCNC(=N)N)NC(=O)[C@H](Cc1cccc2ccccc12)NC(=O)[C@H](Cc1cccc2ccccc12)NC(=O)[C@H](Cc1cccc2ccccc12)NC(=O)[C@@H](N)Cc1cccc2ccccc12)C(=O)N[C@@H](CCCNC(=N)N)C(=O)N1CCC[C@H]1C(=O)O (stereo in doubt) [Peptide N4],50.8
